This note sets out measurements from PubChem BioAssay AID493014 (National Center for Advancing Translational Sciences (NCATS), 2011).

As a reminder, the AC50 is the midpoint of the concentration-response curve, whichever way the signal moves.

This is one part of the list. Shown are side measurements of this screen, not its main read-out; they come without a call. Most of these compounds were active or inconclusive in the main read-out, so they are no random draw. The note in brackets gives the kind of curve behind each potency; many fits are weak.

A short description of the experiment: qHTS Assay to Find Inhibitors of Chronic Active B-Cell Receptor Signaling. Particulars: ABC-DLBCL IkBa-CBG/CBR reporter, luminescence ratio (green luciferase fused to IkBa over red control in TMD8 lymphoma cells), 4 h. The gist of the method:
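Doxycycline induced both beetle luciferases in TMD8 lymphoma cells; IKK-driven degradation limits the IkappaBalpha-fused green signal, while red luminescence normalises for cell number and nonspecific effects. Compounds tested up to 46 uM, 4 hrs.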
(In general: Quantitative high-throughput screening tests each substance at several concentrations.)

Setting [1] is: measured here: CBR red luminescence, cell number.
The mark [2] stands for this setting: measured here: IkBa-CBG green luminescence.

For `COc1ccc(NC(=O)c2cccc(NC(=O)C3C4CC5OC(=O)C3C5C4)c2)c(OC)c1` (configuration not stated), the AC50 under setting [1] was 7.31 µM [falling, partial curve, poor fit]. On the same count and under the same terms, the value for `COc1ccccc1NCc1cc(=O)oc2c(C)c(O)ccc12` was 20 µM [falling, single point]; that for `O=C(/C=C/c1ccccc1)Nc1ccc(Br)cn1` was 2.82 µM [falling, full curve]; that for `O=C1/C(=C\Nc2ccc(OC(F)(F)F)cc2)CCN1c1ncccn1` was 0.517 µM [rising, full curve, poor fit]. Regarding `COc1cccc2cc(C(=O)NCC3CCCO3)c(=O)oc12` (configuration not stated), the AC50 under setting [1] is 6.51 µM [falling, partial curve]. For the compound `CN(c1ccc(C(=O)Nc2ccc3c(c2)OCCO3)cc1)S(C)(=O)=O`, the AC50 under setting [1] is 0.259 µM [falling, full curve, poor fit].

With `CCN(CC)S(=O)(=O)c1cc(NC(=O)c2ccc3c(c2)NC(=O)C(C)S3)ccc1C` (configuration not stated), the AC50 under setting [1] is 32.6 µM [falling, single point].

In the case of `N#CC(c1ccc(Cl)nn1)c1ccc(Cl)cc1Cl` (configuration not stated), the AC50 under setting [1] is 1.64 µM [falling, full curve]. `Cn1c(C(=O)NCc2cccnc2)cc2sccc21`: under setting [1], the half-maximal activity concentration (AC50) is 6.51 µM [rising, single point].

As for `O=C(NC1CCCC1)C(c1ccncc1)N(Cc1ccco1)C(=O)c1ccc(-c2ccccc2)[nH]1` (configuration not stated), the concentration at half-maximal activity (AC50) by setting is: under setting [1], 35.5 µM [falling, single point]; under setting [2], 11.2 µM [rising, partial curve, poor fit]. With `COc1ccc(N=Nc2ccc(O)c3ncccc23)cc1`, the AC50 under setting [1] is 2.82 µM [rising, full curve, poor fit]. As to `Nc1nonc1-n1nnc(C(=O)N/N=C/c2ccc(Cl)cc2)c1-c1ccc2c(c1)OCO2`, the concentration at half-maximal activity (AC50) under setting [1] is 2.82 µM [rising, partial curve, poor fit].

With `CCOc1ccc(C(=O)/C=C/Nc2ccc(S(=O)(=O)Nc3cc(C)nc(C)n3)cc2)cc1`, under setting [1], the AC50 is 35.5 µM [rising, single point]. As to `CCCc1c(C(=O)N/N=C/c2cccs2)nnn1-c1nonc1N`, under setting [1], the AC50 is 0.0891 µM [rising, full curve, poor fit]. As for `COc1ccc(CNCCC(c2ccc(OC(C)C)cc2)c2ccccc2OC)cc1OC` (configuration not stated), the AC50 under setting [1] is 35.5 µM [falling, single point]. Regarding `Cc1cc(C(=O)NCc2csc(-c3ccccc3)n2)no1`, under setting [1], the AC50 was 2.51 µM [rising, full curve, poor fit]. On to `C=CC[n+]1ccc(/C=C2\C=Cc3cc(C)ccc3N2CC)c2ccccc21`, for which the half-maximal activity concentration (AC50) under setting [2] is 22.4 µM [rising, partial curve, poor fit].

On to `Cc1c(N2C(=O)/C(=C/C3CC=CCC3)SC2=S)c(=O)n(-c2ccccc2)n1C` (configuration not stated), for which the AC50 under setting [1] is 10 µM [falling, partial curve]. On the same count and under the same terms, the value for `COc1ccc(CNC2CCSc3ccccc32)cc1OC` (configuration not stated) was 5.62 µM [rising, single point]; that for `O=C(O)c1ccc(OCCCCCCOC2CCCCO2)cc1` (configuration not stated) was 10 µM [rising, single point].

For the compound `c1ccc(-c2cccc(-c3ccccc3)n2)cc1`, under setting [1], the half-maximal activity concentration (AC50) is 35.5 µM [rising, partial curve, poor fit]. In the case of `COCCn1c(SCC(=O)c2c(N)n(C3CC3)c(=O)[nH]c2=O)nnc1-c1cccc(C)c1`, the concentration at half-maximal activity (AC50) under setting [1] is 29.1 µM [rising, single point].

For `C=CCSc1nnc2c(n1)OC=Nc1ccc(Br)cc1-2`, under setting [1], the AC50 was 32.6 µM [falling, single point]. Consider `COc1ccccc1NC(=O)c1sc2nc(N3CCOCC3)c3c(c2c1N)CCCC3`, for which the AC50 under setting [1] is 5.62 µM [rising, single point]. `CC(=O)N1CCC2(CC1)C/C(=N\NC(=S)Nc1ccccc1F)c1cc(O)ccc1O2`: the AC50 under setting [1] was 31.6 µM [falling, single point].

For the compound `O=C1C(=O)c2ccc(-c3ccccc3)cc2-c2ccccc21`, under setting [1], the concentration at half-maximal activity (AC50) is 5.8 µM [falling, full curve, poor fit]. On the same count and under the same terms, the value for `COc1ccc(Nc2nc(C)nc3c2nnn3Cc2ccccc2Cl)c(OC)c1` was 15.8 µM [rising, single point]. With `O=C1NC(c2ccccc2)CCO1` (configuration not stated), the AC50 under setting [1] is 1.58 µM [rising, full curve, poor fit].

In the case of `CCc1nnc(NC(=O)c2cc(Cl)ccn2)s1`, the AC50 runs as follows: under setting [1], 35.5 µM [falling, single point]; under setting [2], 25.1 µM [falling, single point]. As for `CC(C)(C)[C@H]1C=C(C(=O)NCc2nc3ccccc3[nH]2)O[C@@H](OCc2ccc(CO)cc2)C1`, the concentration at half-maximal activity (AC50) under setting [1] is 35.5 µM [falling, single point]. On to `CCNC(=O)COC(=O)c1cc(C)n(-c2ccccc2)c1C`, for which, under setting [1], the AC50 is 1.12 µM [rising, full curve, poor fit]. Consider `COc1ccc(C(=O)Nc2ccccc2C(=O)Nc2ccccc2C(=O)O)cc1`, for which the half-maximal activity concentration (AC50) under setting [1] is 12.6 µM [falling, single point]. Consider `COc1ccccc1NC(=O)c1ccccc1NC(=O)c1ccccn1`, for which the AC50 under setting [1] is 2.59 µM [falling, full curve, poor fit]. With `O=C(NCc1ccc2c(c1)OCO2)c1ccc(CSCc2ccc(Cl)cc2)o1`, the half-maximal activity concentration (AC50) under setting [1] was 29.1 µM [falling, single point]. For the compound `CC(Oc1ccc(Br)cc1)C(=O)Nc1cc(Cl)ccc1N1CCN(C)CC1` (configuration not stated), the AC50 under setting [1] was 23.1 µM [falling, single point]. With `CCCn1nc(NC(=O)c2cccs2)c2cc3cc(C)ccc3nc21`, the AC50 under setting [1] was 7.94 µM [falling, partial curve].

Consider `O=c1[nH]c(/C=C/c2ccccc2Cl)c([N+](=O)[O-])c(=O)[nH]1`, for which the AC50 under setting [1] was 22.4 µM [falling, single point]. As to `Cc1ccc(-c2cc(C(F)F)n3ncc(C(=O)N4CCN(c5ccccn5)CC4)c3n2)cc1`, under setting [1], the half-maximal activity concentration (AC50) is 0.058 µM [rising, full curve, poor fit].

As for `Cc1nn(C)cc1C(=O)NNC(=S)Nc1ccc(Cl)cc1`, the half-maximal activity concentration (AC50) under setting [1] was 20 µM [falling, partial curve, poor fit].

On to `CC(NC(=O)c1ccc(F)cc1Cl)C1CC2CCC1C2` (configuration not stated), for which the AC50 under setting [1] was 35.5 µM [rising, single point].

With `CS(=O)(=O)c1nc(-c2ccccc2)cc(C(F)(F)F)n1`, the half-maximal activity concentration (AC50) reads like this: under setting [1], 2.59 µM [falling, full curve]; under setting [2], 2.91 µM [rising, full curve]. As for `Cc1ccc(C(=O)NCc2ccco2)cc1S(=O)(=O)Nc1cccc(Cl)c1`, the concentration at half-maximal activity (AC50) runs as follows: under setting [1], 0.731 µM [falling, partial curve, poor fit]; under setting [2], 0.231 µM [rising, full curve, poor fit]. `O=C(CCSCc1ccccc1F)NCc1ccc(F)cc1`: the AC50 under setting [1] is 10 µM [rising, partial curve].

On to `COc1ccc(C2CC(O)(C(C)(C)O)NO2)cc1` (configuration not stated), for which, under setting [1], the concentration at half-maximal activity (AC50) was 10 µM [falling, single point].

Take `Oc1ccccc1-c1nnc(-c2ccc(C(F)(F)F)cc2)o1`: the AC50 under setting [1] is 5.62 µM [rising, partial curve, poor fit]. Take `CCOC(=O)C1=C(C)NC(C)=C(C(=O)OCC)C1c1cc(N)ccc1OC(F)F`: under setting [1], the half-maximal activity concentration (AC50) is 29.1 µM [falling, single point].

On to `OC(CC1CC12c1ccccc1-c1ncccc12)(c1ccccc1)c1ccccc1` (configuration not stated), for which the AC50 by setting is: under setting [1], 10.3 µM [falling, partial curve]; under setting [2], 16.4 µM [rising, partial curve, poor fit]. Consider `Cc1cc(C(=O)CSc2nnc(-c3cccnc3)n2-c2ccccc2F)c(C)n1CC1CCCO1` (configuration not stated), for which the concentration at half-maximal activity (AC50) under setting [1] was 0.651 µM [rising, full curve, poor fit]. `COc1ccc(CCN(C)C(=O)CSc2ncnc3sccc23)cc1OC`: the AC50 under setting [1] was 3.16 µM [rising, partial curve, poor fit]. With `Cc1ccc(S(=O)(=O)CCC(=O)OC(C)C(=O)N2CCc3ccccc32)cc1` (configuration not stated), the concentration at half-maximal activity (AC50) under setting [1] is 6.51 µM [falling, partial curve, poor fit]. Turning to `COc1cc(CNC2CCCCCC2)cc(OC)c1`, the concentration at half-maximal activity (AC50) under setting [1] is 29.1 µM [rising, single point]. Consider `Cc1ccc(S(=O)(=O)N2CCCCC2)cc1NC(=O)COC(=O)c1cccn1C`, for which the half-maximal activity concentration (AC50) under setting [1] is 3.26 µM [falling, single point]. Regarding `Cc1nc(C)c(C(=O)C2=C(O)C(=O)N(CCN(C)C)C2c2ccccc2)s1` (configuration not stated), the AC50 under setting [1] is 0.00461 µM [falling, full curve, poor fit]. Turning to `CC(=O)N1CCc2cc(C(=O)CN3CCN(c4cccc(Cl)c4)CC3)ccc21`, the AC50 under setting [1] is 5.01 µM [rising, partial curve, poor fit]. Turning to `Oc1ccc(Nc2nnc(-c3ccc(O)cc3)c3ccccc23)cc1`, under setting [2], the AC50 was 5.01 µM [falling, partial curve, poor fit].

As to `COc1ccccc1NC(=O)CSC1=Nc2ccccc2C2=NC(CC(=O)NCc3cccs3)C(=O)N12` (configuration not stated), the half-maximal activity concentration (AC50) under setting [1] was 17.8 µM [falling, single point].

For `Cc1ccccc1NC(=S)N=Nc1c(O)n(C)c2ccc(S(=O)(=O)N3CCOCC3)cc12`, the half-maximal activity concentration (AC50) under setting [2] was 3.66 µM [falling, full curve].

With `CCOC(=O)COc1cc(OCC(=O)OCC)c2c3c(c(=O)oc2c1)CCCC3`, the AC50 under setting [1] is 3.16 µM [falling, full curve, poor fit]. Still for that read-out and setting: the value for `O=C(Nc1ccc(NC(=O)c2cccs2)c(Cl)c1)c1ccco1` was 22.4 µM [falling, single point]. On to `CCNC(=S)NNC(=O)c1ccc(OC(F)F)cc1`, for which the AC50 under setting [1] is 29.1 µM [falling, single point]. As to `CCCCN(C(=O)CNC(=O)c1cccs1)C(C(=O)NC1CCCC1)c1ccncc1` (configuration not stated), under setting [1], the half-maximal activity concentration (AC50) is 22.4 µM [falling, single point]. Turning to `COc1ccc(C)cc1NC(=O)c1cc2ccccc2cc1OCC(=O)NCc1ccco1`, the half-maximal activity concentration (AC50) under setting [1] is 2.31 µM [falling, partial curve].
